In PubChem BioAssay AID1625 (Sanford-Burnham Center for Chemical Genomics, 2009):
Hit rate of the full screen: of about 190,000 compounds, about 570 (0.3%) were called active. This list was built around the results that the source calls inconclusive (neither active nor inactive); the mix of calls is not that of the screen.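 Rule for the calls: active = z-score above 3 at 5 µM with at least 500 cells counted in the well; inconclusive = wells under 500 cells, flagged as cytotoxic or low count; inactive = the rest.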

Experiment: up-regulation of insulin promoter-GFP reporter – imaging, high-content screening, mouse beta cells (AID 1625)
Settings: MIN6 insulin promoter-GFP reporter, at 5 µM, stronger effect = higher value

SMILES	z-score
CCC(=O)NC(c1ccccc1OC)c1ccc2cccnc2c1O (stereo unspecified)	inconclusive: -4.09
CC(C)(C)C(=O)/C(=C\c1cccc([N+](=O)[O-])c1)n1cncn1	inconclusive: -1.42
CCOC(=O)N1CCC(N2CCN(S(=O)(=O)c3ccc(C)cc3)CC2)CC1	inactive: -0.39
COc1cccc(CNCCSc2nnnn2C)c1	inactive: 0.52
Cc1ccc(-c2c[n+](Cc3ccc(Cl)cc3)c3n2CCC3)cc1	inconclusive: -4.54
Cc1ccc([N+](=O)[O-])cc1NC(=O)c1cccs1	active: 3.18
CCOC(=O)c1cnc2sc3c(n2c1=O)CCCC3	inconclusive: -6.91
O=C(Nc1nnc(-c2ccccc2)o1)Nc1ccccc1Cl	active: 3.77
Cc1ccc(/C=N/NC(=O)c2cc(C3CC3)nc3ccccc23)o1	inconclusive: -0.42
O=C1C(=O)c2c(C(=O)c3ccccc3)coc2-c2ccccc21	inconclusive: -1.72
Cc1ccc(O)c(-c2cc(-c3cccc(F)c3)n[nH]2)c1	inactive: 0.14
CCOc1ccccc1-c1c2cc(O)c(=O)cc-2oc2cc(O)c(O)cc12	active: 8.08
Cc1cccc(N=Nc2ccc(O)c3ncccc23)c1	inconclusive: -3.17
Cc1cccc(C)c1NC(=S)NNc1ncc(C(F)(F)F)cc1Cl	inactive: 0.06
CCNc1ccc(C(=O)NN=C2CCCC2)cc1[N+](=O)[O-]	inactive: 0.73
CCOC(=O)c1sc(NC(=O)c2sccc2C)cc1C	active: 3.1
Cc1ccc(C[n+]2cc(-c3ccc(Cl)cc3)n3c2CCC3)cc1	inconclusive: -2.04
CC(=O)Nc1ccc(NC2=C/C(=N/S(=O)(=O)c3cccs3)c3ccccc3C2=O)cc1	inconclusive: -5.05
Clc1ccc(-c2cn(-c3ccc(Cl)cc3)c3[n+]2CCCCC3)cc1	inconclusive: -3.02
CCOC(=O)c1[nH]c2ccc(OCC)cc2c1NC(=O)CN1CCCC(C)C1 (stereo unspecified)	inconclusive: -1.36
COc1cccc(F)c1C(C[N+](=O)[O-])c1c(N)n(C)c(=O)n(C)c1=O (stereo unspecified)	inconclusive: -5.34
S=C(Nc1ccccc1)Nc1nc2ccccc2n1CCOc1ccccc1	inactive: -0.39
COc1ccc(-c2nn(-c3ccccc3)cc2/C=N/NS(=O)(=O)c2ccccc2)cc1	inactive: 0.07

SMILES	z-score
Fc1ccc(-n2cc(CNCCc3ccccn3)c(-c3ccccc3Cl)n2)cc1	inactive: -0.86
CC[n+]1c(C)n(-c2ccccc2)c2ccc(NC(C)=O)cc21	inconclusive: -4.8
CCN(CC)S(=O)(=O)c1ccc(/C=C/C(=O)Nc2ccc(F)c(F)c2F)cc1	inconclusive: -4.79
COc1ccc(N/N=C(/N=Nc2nc(C)cc(=O)[nH]2)c2ccccc2)cc1	inconclusive: -4.45
Cc1ccc(NC(=O)COC(=O)c2csc3c2CCC(C)C3)cc1S(=O)(=O)N1CCCCC1 (stereo unspecified)	inconclusive: -4.82
COc1cc(C(=O)Oc2cccc(Nc3ncnc4ccccc34)c2)cc(OC)c1OC	inconclusive: -1.74
CCCc1cc(C(F)(F)F)c(C#N)c(=O)[nH]1	inactive: 0.3
O=C(/C=C/c1ccco1)NC(=S)Nc1ccccc1N1CCCC1	active: 3.08
COC(=O)Cc1c(C)nc2nc(NCc3ccccc3OC)[nH]n2c1=O	active: 4.27
CCN1/C(=C/C=C/c2oc3ccc(-c4ccccc4)cc3[n+]2CC)Oc2ccc(-c3ccccc3)cc21	inconclusive: 16.5
O=C(c1ccc(CSc2nc3ccncc3[nH]2)cc1)N1CCN(c2cccc(Cl)c2)CC1	inconclusive: -1.69
O=C(COc1ccc(C(=S)N2CCOCC2)cc1)N1CCCC1	inactive: 1.36
COc1ccc(OC)c(S(=O)(=O)Nc2ccc(Oc3ccccc3)cc2)c1	inconclusive: -1.05
O=C1c2ccncc2C(=O)N1CNc1ccc(Cl)cc1	inactive: 0.06
CC[n+]1c(/C=C/Nc2ccccc2)sc2ccccc21	inconclusive: -2.6
COc1ccc(-n2c(=O)c(NC(=O)c3ccccc3)c3n(c2=S)CCCCC3)cc1	inactive: -1.05
COc1ccc2c(c1)nc(SCC(=O)c1cccs1)n2C	inactive: -0.72
Cc1ccccc1-n1ncc2c(SCC(=O)NCc3cccs3)ncnc21	active: 3.57
Cc1ccc(-n2c(-c3ccccc3)c[n+]3c2CCc2ccccc2-3)c(C)c1	inconclusive: -6.76
O=C(Nc1nc2ccccc2s1)C1CCN(S(=O)(=O)c2cc([N+](=O)[O-])ccc2Cl)CC1	inconclusive: -2.06
Cn1c(-c2sc3cc(C(F)(F)F)cnc3c2-c2ccccn2)n[nH]c1=S	inactive: -1.23
CC(C)CCNC(=O)C(=O)NC1CCCC1	inconclusive: -4.8
c1ccc(-c2ccc(-c3nccc4ccccc34)[nH]2)cc1	active: 4.38

SMILES	z-score
Cc1ccc2nc(NC(=O)C3CCN(S(=O)(=O)c4cc([N+](=O)[O-])ccc4Cl)CC3)sc2c1	inconclusive: -3.89
CCn1c(C)cc(/C=C2\NC(=O)N(CC(=O)Nc3cccc(C)c3)C2=O)c1C	inactive: 1.39
CC(=O)N1NC(=Nc2ccccc2)SC1(C)C	inactive: -1.08
CSC1=NCCN1C(=O)c1c(F)cccc1F	inconclusive: -3.95
CC(=O)O[C@H]1C(=O)[C@@]2(C)[C@H]([C@H](OC(=O)c3ccccc3)[C@]3(O)C[C@H](OC(=O)[C@H](O)C(NC(=O)c4ccccc4)c4ccccc4)C(C)=C1C3(C)C)[C@]1(OC(C)=O)CO[C@@H]1C[C@@H]2O (stereo partly specified)	inconclusive: 0.67
O=C(NC1=NCCS1)C1Cc2ccccc2CN1C(=O)c1ccccc1 (stereo unspecified)	active: 3.06
CN(C)c1ncnc2c1NC1=C(S2)C(=NCCCC(=O)O)CC(C)(C)C1	inconclusive: -2.91
COc1cccc(Cn2cc(C(=O)NCCN(C)C)nn2)c1	inactive: -1.07
Cc1sc(NC(=O)CN2CCOCC2)nc1-c1ccc2c(c1)CCN2S(=O)(=O)c1ccccc1	inconclusive: -4.1
CCCN1Cc2cccc(C(=O)Nc3ccc(S(=O)(=O)N4CCCCCC4)cc3)c2C1=O	inconclusive: -1.79
CCCCCCCCCn1c2c(c(=N)c3c1CCC3)CCC2	inconclusive: -1.98
COC(=O)c1c(NC(=O)CC2Nc3cc(C)c(C)cc3NC2=O)sc(C)c1C (stereo unspecified)	active: 6.44
CCCCn1c(O)c(/C=C/C=C/C=Nc2ccccc2)sc1=S	active: 4.72
CN(CCCNC(=O)CN1C(=O)CC(C)(C)S(=O)(=O)c2ccccc21)C1CCCCC1	active: 3.03
Cc1nc(N2CCN(c3ccccc3)CC2)c2c3c(sc2n1)CCC3	inconclusive: -2.94
O=S(=O)(c1cccc2nsnc12)N1CCN(C/C=C/c2ccccc2)CC1	inactive: -0.34
Cc1ccc(Nc2nc3ccccc3nc2Nc2c(C)n(C)n(-c3ccccc3)c2=O)cc1	inconclusive: -5.63
CC(NC(=O)c1ccccc1O)c1ccccc1 (stereo unspecified)	inactive: 0.42
COc1ccccc1-c1cc(C(F)(F)F)nc(N2CCCC2)n1	inactive: -0.43
Cc1sc2ncnc(NCc3ccco3)c2c1C	inconclusive: -3.26
CC(/C=C/C1(O)C(C)CC(O)CC1(C)C)OC1OC(CO)C(O)C(O)C1O (stereo unspecified)	inconclusive: 0.93
Cc1ccccc1-c1nnc(-c2ccc(Cl)cc2)o1	active: 3.54
CCCCCCCCCn1ccc(=N)cc1	inconclusive: -4.4

SMILES	z-score
O=C(c1ccccc1F)N(Cc1ccc2c(c1)OCO2)Cc1cc2cc3c(cc2n2nnnc12)OCO3	inactive: -0.46
CCCCCCCCCCCCCCCCn1cc[n+](CC(C)=O)c1	inconclusive: -5.12
COCCNC(=S)N1CCc2cc(OC)c(OC)cc2C1COc1ccc(C(C)C)cc1 (stereo unspecified)	inactive: -0.82
Cn1nc(CC(=O)NCCN2C(=O)CSC2=O)c2ccccc2c1=O	inactive: 0.62
Cc1oc2ccc(OS(C)(=O)=O)cc2c1C(=O)OC(C)C	inconclusive: -4.29
CCc1nnc(NS(=O)(=O)c2ccc(NC(=O)/C=C/c3ccccc3Cl)cc2)s1	inactive: 0.18
CCCCC(=O)NC(c1ccccc1OC)c1ccc2cccnc2c1O (stereo unspecified)	inactive: -0.92
CC(=O)Nc1ccc(C(=O)N(C)C(C(=O)Nc2ccccc2)c2ccccn2)cc1 (stereo unspecified)	inconclusive: -4.48
Cc1ccc(NC(=O)Cc2nn(C)c(=O)c3ccccc23)cc1F	inconclusive: -1.67
CN(CCOc1ccc(Cl)cc1)c1ccc(S(=O)(=O)N2CCCCC2)cn1	inconclusive: -0.78
CCOC(=O)N1CCN(C(=O)c2cc(S(=O)(=O)N3CCCC3)cn2C)CC1	active: 3.05
Fc1cc(F)c2nc(N3CCCC3)sc2c1	inactive: 0.23
CC(C)OCCCNc1ncnc2c1[nH]c1ccccc12	inconclusive: -6.97
CC(=O)Nc1ccc(Oc2cc(C#N)c(C#N)cc2N2CCCCCC2)cc1	inconclusive: -2.07
COc1ccc2occ(C(=O)c3cccs3)c2c1	inactive: -0.1
CC(=O)N1N=C(c2cccc([N+](=O)[O-])c2)OC1c1ccc(Br)cc1 (stereo unspecified)	inactive: -0.09
CCCCC(=O)Nc1ccc2c(c1)nc1n2CCSC1	active: 3.16
c1ccc(CN2CCN(c3nc(-c4ccccn4)nc4ccccc34)CC2)cc1	inconclusive: -3.04
CCC(=O)Nc1ccc(C(=O)OCC(=O)c2ccc(C)c([N+](=O)[O-])c2)cc1	active: 3.37
Cc1onc(-c2ccccc2Cl)c1C(=O)N(C)C1CCCCC1	inconclusive: -9.51
O=c1c([N+](=O)[O-])cccn1Cc1ccc(F)cc1Cl	active: 3.36
Cc1cc(Cl)n2c(nc3ccccc32)c1C#N	inconclusive: -3.66

Shown as a markdown table: 5 of the compounds above.

| SMILES | z-score |
| --- | --- |
| CC(=O)Nc1ccc(C(=O)N(C)C(C(=O)Nc2ccccc2)c2ccccn2)cc1 (stereo unspecified) | inconclusive: -4.48 |
| Cc1ccc(NC(=O)Cc2nn(C)c(=O)c3ccccc23)cc1F | inconclusive: -1.67 |
| CN(CCOc1ccc(Cl)cc1)c1ccc(S(=O)(=O)N2CCCCC2)cn1 | inconclusive: -0.78 |
| CCOC(=O)N1CCN(C(=O)c2cc(S(=O)(=O)N3CCCC3)cn2C)CC1 | active: 3.05 |
| Fc1cc(F)c2nc(N3CCCC3)sc2c1 | inactive: 0.23 |
